Results published in PMC5775407.
These are yes or no findings as the source states them, for the method shown. Binding seen in cells or lysates may run through a third protein. Some results given as binding are weak or reduced against the parent protein; the word gives no strength.

Sequences of proteins named here, by UniProt entry; tags and fusion partners are left off.
UniProt P37231: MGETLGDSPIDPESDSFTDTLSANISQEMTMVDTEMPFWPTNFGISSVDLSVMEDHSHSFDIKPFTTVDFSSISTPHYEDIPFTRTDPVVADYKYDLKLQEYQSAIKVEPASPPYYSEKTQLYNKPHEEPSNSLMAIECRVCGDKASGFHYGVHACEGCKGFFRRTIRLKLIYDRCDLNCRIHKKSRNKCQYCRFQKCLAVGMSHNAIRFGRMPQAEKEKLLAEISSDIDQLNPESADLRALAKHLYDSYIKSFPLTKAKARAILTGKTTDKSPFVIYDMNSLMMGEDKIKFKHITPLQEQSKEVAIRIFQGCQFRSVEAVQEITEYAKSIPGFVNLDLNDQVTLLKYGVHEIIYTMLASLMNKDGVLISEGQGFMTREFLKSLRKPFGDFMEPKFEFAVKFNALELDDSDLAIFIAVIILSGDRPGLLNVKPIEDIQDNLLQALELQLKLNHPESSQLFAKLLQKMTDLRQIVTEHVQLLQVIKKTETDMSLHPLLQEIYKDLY
UniProt Q04206: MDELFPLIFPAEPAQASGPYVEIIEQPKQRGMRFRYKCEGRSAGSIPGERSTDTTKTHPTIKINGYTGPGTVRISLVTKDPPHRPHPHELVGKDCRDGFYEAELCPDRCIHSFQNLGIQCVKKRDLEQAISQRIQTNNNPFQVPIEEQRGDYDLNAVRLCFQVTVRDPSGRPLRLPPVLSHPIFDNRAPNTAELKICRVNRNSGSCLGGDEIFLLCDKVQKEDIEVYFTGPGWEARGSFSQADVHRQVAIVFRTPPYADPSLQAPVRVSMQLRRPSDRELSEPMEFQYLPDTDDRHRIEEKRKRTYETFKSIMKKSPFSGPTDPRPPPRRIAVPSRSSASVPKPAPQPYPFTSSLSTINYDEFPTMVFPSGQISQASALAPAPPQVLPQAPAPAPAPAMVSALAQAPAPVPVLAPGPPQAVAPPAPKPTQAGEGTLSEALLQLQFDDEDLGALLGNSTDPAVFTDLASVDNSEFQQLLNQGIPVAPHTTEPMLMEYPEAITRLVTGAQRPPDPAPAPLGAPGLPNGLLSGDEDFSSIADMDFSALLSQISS

Target: peroxisome proliferator-activated receptor-γ (human (endogenous in primary chondrocytes)) (UniProt P37231)
Assay: co-IP; endogenous proteins of human chondrocytes treated with 10 μg/ml poly(I:C), pretreated with or without the p38 MAPK inhibitor SB202190; lysed in RIPA buffer (pH 7.4) with protease inhibitors; 20 μg total protein for immunoprecipitation; immunoblot

p65 (from UniProt Q04206 1-551)
binding: binds
